From publication PMC13376213, “Systematic discovery of motif-based interactions of the auxiliary domains of USP family deubiquitinases” (Nature Communications, 2026)

Molecular target: T1, PARD3B peptide 171-186 (human)
T1 sequence (peptide): TQNLEDREVLNGVQTE
Test: peptide or protein array; peptides synthesised on cellulose membrane (SPOT); GST-tagged domain in 5% skim milk in TBST overnight at 4 °C; HRP-conjugated anti-GST, chemiluminescence; both purified

Substance: USP20 zf-UBP domain, GST-tagged (human) (domain or fragment)
- binding: binds

Results are given in words; binding and its absence hold for the method and conditions named. Binding calls can cover weak binding; strength is not graded here.
